1 compound from patent US4341798A, “Amide derivatives of p-isobutyl-phenyl-propionic acids and related pharmaceutical compositions” (Laboratori Prophin S.p.A., priority 1980, dated 1982) can be followed below.

This data set in a line: in vivo. The settings on record: rat.

Turning to `COc1ccc2cc([C@H](C)C(=O)O)ccc2c1` [Naproxene, d-2(6'-methoxy-2'-naphtyl)-propionic acid], the TD50 at 672 h came to 180 µmol/kg.
